The other results are listed elsewhere or left out.

The source of these data is paper PMC7819943, “Rice protein-binding microarrays: a tool to detect cis-acting elements near promoter regions in rice”.

The target of the test is T1, OsSMF1 (Oryza sativa, UniProt Q6ZLB0 1-436).
T1 sequence: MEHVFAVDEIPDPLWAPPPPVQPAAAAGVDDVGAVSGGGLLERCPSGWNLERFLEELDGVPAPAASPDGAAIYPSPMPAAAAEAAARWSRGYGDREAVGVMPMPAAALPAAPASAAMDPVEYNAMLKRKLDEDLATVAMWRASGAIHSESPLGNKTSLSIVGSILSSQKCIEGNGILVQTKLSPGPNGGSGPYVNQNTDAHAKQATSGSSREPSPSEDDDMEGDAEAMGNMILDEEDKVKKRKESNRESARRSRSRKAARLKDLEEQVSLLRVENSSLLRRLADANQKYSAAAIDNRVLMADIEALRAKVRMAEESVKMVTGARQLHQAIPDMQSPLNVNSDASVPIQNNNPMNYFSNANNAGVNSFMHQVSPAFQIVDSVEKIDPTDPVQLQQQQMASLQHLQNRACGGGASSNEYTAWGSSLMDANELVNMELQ
The test can be described thus: protein-binding microarray (RPBM); PBS, 2% BSA, 51.3 ng/ul salmon testes DNA, 50 uM zinc acetate, 200 nM TF, 25 C, 1 h; high values mean tight binding. Conditions: protein: recombinant; tags: N-terminal polyhistidine and DsRed monomer fusion (pET32a); chain copies: 2; label: CyDye5-dUTP incorporated in the synthesized complementary strand; 3' TTTTT single-stranded linker to array surface; dsDNA, one strand shown. An outline of the steps:
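Transcription factors, each fused N-terminally to a polyhistidine tag and DsRed, were expressed in E. coli BL21-CodonPlus and purified on Ni–NTA. A custom Agilent array was made double-stranded by primer extension with Cy5-dUTP and blocked with 2% BSA. It was incubated with 200 nM protein in PBS, 2% BSA, salmon testes DNA and 50 µM zinc acetate at 25 °C for 1 h, then washed. The binding signal is per-feature fluorescence intensity (arbitrary units) read on an Axon 4000B scanner.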
In the case of “GCCATCTGCTGCCGATGATTAGCGATGGATTATTATATCGCGGAGTCACCTAGTGCAG”, the binding signal is 3140 fluorescence intensity (a.u.).

Take “GGCAGCTTGGTGCGGGAGAGAGGCGGCGGCGAAGGGGAGACGGAGTCACCTAGTGCAG”: the binding signal is 41900 fluorescence intensity (a.u.).

“TCAGCCCAGCCACATCACCGCCCACTCCACCACCCCACCCCGGAGTCACCTAGTGCAG”: the binding signal was 9890 fluorescence intensity (a.u.).

Turning to “CAATCACACCACACGTTTACAACCAGAGGCTGCTACTGAACGGAGTCACCTAGTGCAG”, the binding signal is 3600 fluorescence intensity (a.u.).

Take “TCAACCGGTCGGTATCTAAACCCTCTCCCTTTCATCTAGACGGAGTCACCTAGTGCAG”: the binding signal is 17500 fluorescence intensity (a.u.).

Take “CCAGCACAGTAGTTAGCATATGACAAGTGACAACATGCAACGGAGTCACCTAGTGCAG”: the binding signal is 3640 fluorescence intensity (a.u.).

Turning to “TTATGTGTGCGTGGGCCATTAATTTACACTTGCATGTCAGCGGAGTCACCTAGTGCAG”, the binding signal is 4810 fluorescence intensity (a.u.).

Take “CGGGACCGGGACCCACCCAGACGTGGACGCGCTCACTGGACGGAGTCACCTAGTGCAG”: the binding signal was 3850 fluorescence intensity (a.u.).

On to “AGTAGAATTCCTCTGATGCAACTCGCCAGAAATGATCTCACGGAGTCACCTAGTGCAG”, for which the binding signal is 3820 fluorescence intensity (a.u.).

With “CGGACACGTTGAGGCCTCCACGTGGGCCATGTTTGACGGGCGGAGTCACCTAGTGCAG”, the binding signal was 10700 fluorescence intensity (a.u.).

In the case of “ACCACGTGTTCGCGTCACGGACCTACTCTGCCGTCACCGACGGAGTCACCTAGTGCAG”, the binding signal is 5130 fluorescence intensity (a.u.).

As to “TACTTGTGCTTTGACATGTATCCGACGTGGCTCATGAACCCGGAGTCACCTAGTGCAG”, the binding signal was 11800 fluorescence intensity (a.u.).

For the sequence “CACGTCCTCACCAACCAACCATGCAAGCCCGCTCGACCCCCGGAGTCACCTAGTGCAG”, the binding signal is 3220 fluorescence intensity (a.u.).

Turning to “ATAAGGATAATGACGAATCCGTGATGAATCCTGAGACGTACGGAGTCACCTAGTGCAG”, the binding signal was 4410 fluorescence intensity (a.u.).

“TCTGATGGGCGCTGGCTATCAATGTATGTCACTGTGTTGTCGGAGTCACCTAGTGCAG”: the binding signal was 4300 fluorescence intensity (a.u.).

As to “AGGACCACGTATTACCCGTACAAATTAGCAACCGCGCGCGCGGAGTCACCTAGTGCAG”, the binding signal was 6640 fluorescence intensity (a.u.).

As to “ACCCAAGGATCCCCACGTCATTACCGTAGCAGCACTTTAGCGGAGTCACCTAGTGCAG”, the binding signal was 9640 fluorescence intensity (a.u.).

Turning to “GTACTCCATGTAGATGTACATAGTGCTCCATGTAGATGTACGGAGTCACCTAGTGCAG”, the binding signal is 3190 fluorescence intensity (a.u.).

Regarding “TGTTTTCCAAGTAGGTAAAGATATAGATTTACGTTGGATTCGGAGTCACCTAGTGCAG”, the binding signal is 3350 fluorescence intensity (a.u.).

For “AATAGAGGCCTCGGACTTCAGGCCTACAACGTGGCCTGTCCGGAGTCACCTAGTGCAG”, the binding signal was 3750 fluorescence intensity (a.u.).

Regarding “CTAATCAACCCCTCCCCTAACCTTACCACCACCCAAAGCCCGGAGTCACCTAGTGCAG”, the binding signal is 3600 fluorescence intensity (a.u.).

As for “TCATACATTAAAATACGGAGGGAGTATATGTATACTTGCACGGAGTCACCTAGTGCAG”, the binding signal was 3450 fluorescence intensity (a.u.).

As for “TCGACGACGAGGCGTGGCGTGGCGGTGGACTTCCCGTCACCGGAGTCACCTAGTGCAG”, the binding signal was 3240 fluorescence intensity (a.u.).

Regarding “TGGGCTAAACGCATCAATCACACACGCAACGTGGACGGGCCGGAGTCACCTAGTGCAG”, the binding signal was 4440 fluorescence intensity (a.u.).

Consider “AAGAATTGCCACGCATTTCTACCCTCGATATTCCTCCAACCGGAGTCACCTAGTGCAG”, for which the binding signal is 6410 fluorescence intensity (a.u.).

For “GCTTTACGTCTTGTGTGGAAGAAAGCGGAAAACTATCCAGCGGAGTCACCTAGTGCAG”, the binding signal is 3540 fluorescence intensity (a.u.).

Consider “AATCTCTTTCAAATAGGAAAATATGCTGACTTGGATATCTCGGAGTCACCTAGTGCAG”, for which the binding signal is 5890 fluorescence intensity (a.u.).

As for “GACCGTCGCGTCCATCTGCACTGCCACCTGCACGGCAGCCCGGAGTCACCTAGTGCAG”, the binding signal is 3390 fluorescence intensity (a.u.).

“GGCACTGATCTCACTGAGCTGCGTGTGCTACGTATGCAGCCGGAGTCACCTAGTGCAG”: the binding signal was 4370 fluorescence intensity (a.u.).

For “GTCTTAAATGTGGGCCCCACGTGCTGACTCAGCCGATTGTCGGAGTCACCTAGTGCAG”, the binding signal was 12900 fluorescence intensity (a.u.).

For the sequence “TGAAAGCACGCGACCTCACGCGCCGCTAACAAAAGCCCAACGGAGTCACCTAGTGCAG”, the binding signal is 19200 fluorescence intensity (a.u.).

For “GTCTTGTAGTTTCTGTGAGTGAGGTGGAGGCCCTGTATGACGGAGTCACCTAGTGCAG”, the binding signal was 5300 fluorescence intensity (a.u.).

With “CGCCACCGGCACAACCAGGCTGTCACCGGACGCGACCTCACGGAGTCACCTAGTGCAG”, the binding signal was 3330 fluorescence intensity (a.u.).

Take “GTGCGTTTGTGTTCCTGTTGGGGATTGGCCAGTGAAATTACGGAGTCACCTAGTGCAG”: the binding signal is 13800 fluorescence intensity (a.u.).

“CCAGCATCTGACACATCCTTTCCTAGCTGATCGACTCCATCGGAGTCACCTAGTGCAG”: the binding signal was 3420 fluorescence intensity (a.u.).

On to “CTTGGATTTGAATATCATTTGGGTCAAATAGGACGGTAAACGGAGTCACCTAGTGCAG”, for which the binding signal is 5210 fluorescence intensity (a.u.).

In the case of “GGATGGCCTCCGCGGCTCGCGTCACCCCACCCCGAGCTATCGGAGTCACCTAGTGCAG”, the binding signal was 3430 fluorescence intensity (a.u.).

Turning to “GCGCTTGTGACGCGCGCGTTTGGTGCTGTGGACTGTATGTCGGAGTCACCTAGTGCAG”, the binding signal was 4080 fluorescence intensity (a.u.).

As to “GGGCGTAATCGTCACCGCAGTCTTGTCGTCTCCCATGATGCGGAGTCACCTAGTGCAG”, the binding signal is 3600 fluorescence intensity (a.u.).

Turning to “CGTGTCTGCTCGACGCCTCAGCTTCCTCCGCTCATCGCCACGGAGTCACCTAGTGCAG”, the binding signal is 4290 fluorescence intensity (a.u.).

“GCTAAGCTAAACTCAACGAAGACGTGACGAATGTCAAATGCGGAGTCACCTAGTGCAG”: the binding signal was 4130 fluorescence intensity (a.u.).

For the sequence “CCCCGTTTCTTCTCTTCTTCCATCTTCGTCATCTTCCTCCCGGAGTCACCTAGTGCAG”, the binding signal is 4140 fluorescence intensity (a.u.).
